From paper PMC3615075
No constants are given. Whether binding was seen depends on the method and setting. Binding seen in cells or lysates may run through a third protein. Some binding calls cover weakened binding; strength is not graded here.

Target: p53 (human (endogenous in U2OS)) (UniProt P04637)
Assay: co-IP; U2OS whole cell extracts (RIPA) incubated with anti-p53 antibody at 4°C for 3 h, then Protein A/G-Sepharose for 3 h; western blotting; cells untreated or treated with ETO (10 µM, 12 h), Jas (50 nM), CD (0.01 µg/ml), or transfected with actin or actin siRNA

binding: binds
B1: Aurora kinase A (enzyme, UniProt O14965 1-403)
chain: MDRSKENCISGPVKATAPVGGPKRVLVTQQFPCQNPLPVNSGQAQRVLCPSNSSQRIPLQAQKLVSSHKPVQNQKQKQLQATSVPHPVSRPLNNTQKSKQPLPSAPENNPEEELASKQKNEESKKRQWALEDFEIGRPLGKGKFGNVYLAREKQSKFILALKVLFKAQLEKAGVEHQLRREVEIQSHLRHPNILRLYGYFHDATRVYLILEYAPLGTVYRELQKLSKFDEQRTATYITELANALSYCHSKRVIHRDIKPENLLLGSAGELKIADFGWSVHAPSSRRTTLCGTLDYLPPEMIEGRMHDEKVDLWSLGVLCYEFLVGKPPFEANTYQETYKRISRVEFTFPDFVTEGARDLISRLLKHNPSQRPMLREVLEHPWITANSSKPSNCQNKESASKQS
